Some of the results follow. These are further read-outs of the screen, such as a control signal, another cell line or another target. No call is given for them. Most of these compounds were active or inconclusive in the main read-out, so they are no random draw. The note in brackets gives the kind of curve behind each potency; many fits are weak.
Assay: qHTS Assay to Find Inhibitors of Chronic Active B-Cell Receptor Signaling
Conditions: ABC-DLBCL IkBa-CBG/CBR reporter, luminescence ratio (green luciferase fused to IkBa over red control in TMD8 lymphoma cells), 4 h
Outline: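 Cell line TMD8 (human ABC DLBCL), stably expressing tet-inducible CBG68-IkBa fusion and CBR; IMDM/0.5% FBS; cpd up to 46 uM; dox induction, 4 h, 37C/5% CO2; dual luminescence; green/red ratio; MG132 control.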

[1] = measured here: CBR red luminescence, cell number
[2] = measured here: IkBa-CBG green luminescence

Compound | AC50 [1] | AC50 [2]
Cc1nc2cc(-c3ccccc3)nn2c(C)c1CCC(=O)NC(C)c1ccc2c(c1)OCCO2 (stereo unspecified) | 14.6 µM [falling, partial curve] | –
N#CCCn1c(C2CCCCC2)nc2ccccc21 | 13 µM [rising, partial curve, poor fit] | –
CC(C)CCC(C)N=Cc1c(O)n(Cc2ccccc2)c(=O)c2ccccc12 (stereo unspecified) | 29.1 µM [rising, single point] | –
N#C/C(=C/c1cccc([N+](=O)[O-])c1)C(=O)Nc1ccccc1O | 10 µM [falling, partial curve] | –
COc1ccccc1NC(=O)c1c(N=Cc2c(O)ccc3ccccc23)cnn1C | 12.6 µM [rising, partial curve] | 10 µM [falling, partial curve]
CC(C)[C@H](NC(=O)N1c2ccccc2NC(=O)[C@@H]1C(C)C)C(=O)N1CCC(C(=O)O)CC1 | 0.708 µM [falling, partial curve, poor fit] | –
C=CCn1c(SCc2c(C(=O)OC)sc(N)c2C(=O)OC)nnc1-c1ccc(Br)cc1 | 18.4 µM [falling, single point] | –
O=CNNC(=O)c1cccc([N+](=O)[O-])c1 | 6.51 µM [falling, single point] | 5.8 µM [rising, partial curve, poor fit]
O=C1N(CN2CCOCC2)c2ccccc2C12OCC(CCl)O2 (stereo unspecified) | 0.891 µM [rising, full curve, poor fit] | –
Cc1ccc(-c2nn(-c3ccccc3)cc2C=C2C(=O)CC(C)(C)CC2=O)cc1 | 11.2 µM [rising, partial curve] | –
CC(/C=C/c1ccco1)=N\NC(=O)C(O)c1ccccc1 (stereo unspecified) | 29.1 µM [falling, single point] | –
O=C(C1CCN(Cc2ccc(OCc3ccccc3)cc2)CC1)N1CCCC1 | 0.058 µM [rising, full curve, poor fit] | –
CCOC(=O)c1oc2ccccc2c1NC(=O)c1cccc(OC)c1OC | 0.116 µM [falling, full curve, poor fit] | –
COc1ccc(C(=O)/C=C/Nc2ccccn2)cc1 | 1.46 µM [falling, full curve] | –
CCO[C@H]1OC(C(=O)Nc2ccccc2)=C[C@@H](c2ccc(C(F)(F)F)cc2)[C@@H]1CCCO | 15.8 µM [falling, single point] | –
Cc1cccc(OCC(=O)N2CCOCC2)c1 | 2.06 µM [rising, single point] | –
CN(C)c1ccc(N=Nc2ccc(C(=O)O)cc2)cc1 | 1.26 µM [falling, full curve, poor fit] | –
CN(CC(=O)Nc1ccccc1Br)C(=O)CCC1CCCC1 | 8.91 µM [falling, partial curve] | –
COC(=O)CCCCC1SCC(NC(=O)c2ccccc2)C1OC(C)=O (stereo unspecified) | 7.94 µM [rising, partial curve, poor fit] | –
O=C(COc1ccc(Br)cc1)N1CCN(c2ncccn2)CC1 | 25.9 µM [rising, partial curve, poor fit] | –
CC(CCc1ccccc1)NC(=O)c1cc2sccc2n1C (stereo unspecified) | 29.1 µM [rising, single point] | –

Compound | AC50 [1] | AC50 [2]
S=C(NCc1cccnc1)Nc1ccc(Cl)c(Cl)c1 | 11.2 µM [falling, single point] | –
Nc1c(-c2ccc(Cl)cc2)cnc2ncnn12 | 3.16 µM [rising, partial curve, poor fit] | –
O=C(N/N=C/c1cccs1)C1CC(=O)N(c2ccccc2)C1 (stereo unspecified) | 7.08 µM [falling, partial curve, poor fit] | –
CC(C)(C)c1cc(N)n(-c2ccc(C(=O)O)cc2)n1 | 22.4 µM [falling, single point] | –
CCOC(=O)Cc1cc(=O)n2[nH]c(-c3ccccc3)cc2n1 | 25.9 µM [falling, partial curve, poor fit] | –
O=C(COC(=O)COc1ccc(Cl)cc1)NCc1cccs1 | 11.6 µM [rising, partial curve, poor fit] | –
O=C(O)c1cccc(-n2nc(-c3ccc(Cl)c([N+](=O)[O-])c3)c3ccccc3c2=O)c1 | 10 µM [falling, partial curve] | –
O=C(COC(=O)c1ccccc1Nc1ccccc1)Nc1ccccc1 | 8.2 µM [rising, partial curve, poor fit] | –
CC(=O)Nc1ccc(NC(=O)C(C)OC(=O)CCC2CCCC2)cc1 (stereo unspecified) | 29.1 µM [rising, partial curve, poor fit] | –
COc1ccc(S(=O)(=O)N(C)C[C@H]2Oc3ccc(NS(=O)(=O)c4c(C)noc4C)cc3C(=O)N([C@H](C)CO)C[C@@H]2C)cc1 | 1.84 µM [rising, partial curve] | –
Cc1ccc(C2C(C#N)=C(N)Oc3n[nH]c(-c4cccs4)c32)s1 (stereo unspecified) | 3.98 µM [falling, full curve, poor fit] | –
O=C(Nc1nnc(-c2ccccc2)s1)c1ccc(Cl)c(S(=O)(=O)N2CCOCC2)c1 | 14.1 µM [rising, partial curve, poor fit] | –
CN(Cc1nc(-c2ccc(C(F)(F)F)cc2)no1)C1CCOCC1 | 35.5 µM [rising, single point] | –
OC(CNCc1ccc(F)cc1)(c1ccc(F)cc1)c1ccc(F)cc1 | 14.1 µM [falling, single point] | –
Cc1nc2c(ccc3nc(NC(=O)Cc4cccc5ccccc45)sc32)s1 | – | 3.66 µM [rising, full curve, poor fit]
CC(C)C(=O)Nc1ccc(-c2nc3cccnc3o2)cc1 | 2.31 µM [rising, partial curve] | –
O=S(=O)(c1ccc(-c2ccon2)s1)N1CCCC1 | 6.31 µM [falling, single point] | –
O=[N+]([O-])c1ccc(O)c(-c2nn[nH]n2)c1 | 4.61 µM [falling, full curve, poor fit] | –
O=C(Nc1cc(C(F)(F)F)ccc1N1CCOCC1)c1cccs1 | 0.82 µM [rising, full curve, poor fit] | –
O=C(CCCN1C(=O)/C(=C\c2cccs2)SC1=S)NNC(=O)c1ccncc1 | 2.24 µM [falling, full curve, poor fit] | –
O=C(Nc1nnc(C2CC2)s1)C1Cc2ccccc2CN1C(=O)c1ccco1 (stereo unspecified) | 2 µM [rising, full curve, poor fit] | –

Compound | AC50 [1] | AC50 [2]
COC(=O)c1ccc(-c2ccco2)n1Cc1nc(-c2ccc(OC)c(OC)c2)oc1C | 1.03 µM [falling, partial curve, poor fit] | –
CC(=O)NS(=O)(=O)c1cccnc1Nc1ccc(Cl)c(Cl)c1 | 11.6 µM [rising, single point] | –
O=C(c1ccc(C(F)(F)F)cc1)N1CCC(=O)N(C(COCc2ccc(C(F)(F)F)cc2)Cc2ccccc2)CC1 (stereo unspecified) | 25.9 µM [falling, single point] | –
CCOC(=O)c1c(N)sc2c1CCCC2 | 25.1 µM [falling, partial curve, poor fit] | –
NS(=O)(=O)c1ccc(NC(=O)CSc2nc3ccccc3n2-c2ccccc2)cc1 | 20.6 µM [falling, partial curve] | 20.6 µM [rising, partial curve, poor fit]
CCOc1ccc(-n2c(=S)sc3c(=O)[nH]c(SCC(=O)C(C)(C)C)nc32)cc1 | 3.16 µM [falling, partial curve, poor fit] | –
O=C(O)c1cc(NN=C2c3ccccc3-c3ccccc32)ccc1Cl | 12.6 µM [falling, partial curve] | –
CN(C)S(=O)(=O)c1cccc(NC(=O)C2Cc3ccccc3CN2C(=O)c2ccco2)c1 (stereo unspecified) | 35.5 µM [falling, single point] | –
COc1cc(Cl)cc2c1Sc1ccccc1/C2=C/CCN(C)C | 35.5 µM [falling, single point] | –
COc1ccc(C(=O)N/N=C/c2ccc(OC)c(CSc3ccccn3)c2)cc1 | – | 20.6 µM [rising, partial curve, poor fit]
CCc1nn2c(=O)cc(COC(=O)c3cc(Cl)c(OC)c(OC)c3)nc2s1 | 3.26 µM [rising, partial curve, poor fit] | –
COc1ccccc1C(=O)N(Cc1cccs1)C1CCS(=O)(=O)C1 (stereo unspecified) | 35.5 µM [rising, single point] | –
Cc1ccc(NC(=O)NNC(=O)c2ccccc2)cc1 | 22.4 µM [falling, single point] | –
CCN1C=CC(=C2C(=O)c3ccccc3C2=O)C=C1 | 7.08 µM [falling, partial curve, poor fit] | –
CCCCOc1cccc(NC(=O)CSc2nccn2C)c1 | 3.66 µM [rising, full curve, poor fit] | –
COc1ccccc1C(=O)NNC(=O)c1ccc(Br)o1 | 17.8 µM [falling, partial curve, poor fit] | –
Cc1nc(/C=C/c2ccccc2)[nH]c(=O)c1-c1ccccc1 | 1.03 µM [rising, full curve, poor fit] | –
CC1(C)CC(=O)C=C(Nc2ccccc2)C1 | 8.91 µM [falling, partial curve, poor fit] | –
Cn1c2c(c3ccccc31)CCN1CCC[C@]21c1ccccc1 | 3.98 µM [falling, full curve, poor fit] | –
CCc1ccc(OCC(=O)NC(NC(=S)Nc2ccccc2C)C(Cl)(Cl)Cl)cc1 (stereo unspecified) | 16.4 µM [falling, partial curve, poor fit] | –
CC(C)[C@H](NC(=O)c1c(F)cccc1F)C(=O)Nc1cccc(Br)c1 | 17.8 µM [rising, partial curve, poor fit] | –

Ordered by number of heavy atoms (falling): part of the list above.
Compound | AC50 [1] | AC50 [2]
COC(=O)c1ccc(-c2ccco2)n1Cc1nc(-c2ccc(OC)c(OC)c2)oc1C | 1.03 µM [falling, partial curve, poor fit] | –
Cn1c2c(c3ccccc31)CCN1CCC[C@]21c1ccccc1 | 3.98 µM [falling, full curve, poor fit] | –
Cc1ccc(NC(=O)NNC(=O)c2ccccc2)cc1 | 22.4 µM [falling, single point] | –
CCN1C=CC(=C2C(=O)c3ccccc3C2=O)C=C1 | 7.08 µM [falling, partial curve, poor fit] | –

Source: PubChem BioAssay AID493014 (National Center for Advancing Translational Sciences (NCATS), 2011)
